The values below come from patent US20130171163A1, “Inhibition of LAR Phosphatase to Enhance Therapeutic Angiogenesis” (priority 2010, published 2013).

The chains behind the UniProt entries cited, without tags or fusion partners. Residues count along the entry.
UniProt P08069, residues 741-1367: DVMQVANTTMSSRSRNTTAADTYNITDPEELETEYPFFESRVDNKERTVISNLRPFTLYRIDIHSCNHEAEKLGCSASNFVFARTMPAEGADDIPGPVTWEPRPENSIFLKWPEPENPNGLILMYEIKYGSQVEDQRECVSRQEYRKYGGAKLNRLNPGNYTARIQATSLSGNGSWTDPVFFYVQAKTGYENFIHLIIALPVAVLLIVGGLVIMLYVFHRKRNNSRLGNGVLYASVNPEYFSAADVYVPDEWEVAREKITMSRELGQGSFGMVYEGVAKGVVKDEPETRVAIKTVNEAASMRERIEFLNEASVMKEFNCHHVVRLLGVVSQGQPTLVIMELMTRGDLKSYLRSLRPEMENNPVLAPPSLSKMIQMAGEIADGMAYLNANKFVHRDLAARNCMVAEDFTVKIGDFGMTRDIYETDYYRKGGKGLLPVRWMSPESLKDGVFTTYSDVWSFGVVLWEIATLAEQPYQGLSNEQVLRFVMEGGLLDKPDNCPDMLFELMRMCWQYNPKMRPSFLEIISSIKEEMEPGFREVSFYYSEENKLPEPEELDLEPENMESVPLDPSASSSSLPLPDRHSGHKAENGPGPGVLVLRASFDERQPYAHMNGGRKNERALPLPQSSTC

No constants are given. Whether binding was seen depends on the method and setting. In cells and extracts the contact can be indirect. Some binding calls cover weakened binding; strength is not graded here. Sequences can lack the tags named with a protein.

The target in the assay is insulin-like growth-factor-1 receptor beta subunit (IGF-1Rβ) (human) (UniProt P08069). As to the kind of experiment: GST pulldown: GST-cLAR on glutathione-Sepharose beads incubated with HUVEC lysate, anti-IGF-1Rβ Western blot.

B1: GST-cLAR fusion protein (protein, UniProt P10586 1285-1907, looked up, not shown: a dimerising Fc or GST)
chain: KRKRTHSPSSKDEQSIGLKDSLLAHSSDPVEMRRLNYQTPGMRDHPPIPITDLADNIERLKANDGLKFSQEYESIDPGQQFTWENSNLEVNKPKNRYANVIAYDHSRVILTSIDGVPGSDYINANYIDGYRKQNAYIATQGPLPETMGDFWRMVWEQRTATVVMMTRLEEKSRVKCDQYWPARGTETCGLIQVTLLDTVELATYTVRTFALHKSGSSEKRELRQFQFMAWPDHGVPEYPTPILAFLRRVKACNPLDAGPMVVHCSAGVGRTGCFIVIDAMLERMKHEKTVDIYGHVTCMRSQRNYMVQTEDQYVFIHEALLEAATCGHTEVPARNLYAHIQKLGQVPPGESVTAMELEFKLLASSKAHTSRFISANLPCNKFKNRLVNIMPYELTRVCLQPIRGVEGSDYINASFLDGYRQQKAYIATQGPLAESTEDFWRMLWEHNSTIIVMLTKLREMGREKCHQYWPAERSARYQYFVVDPMAEYNMPQYILREFKVTDARDGQSRTIRQFQFTDWPEQGVPKTGEGFIDFIGQVHKTKEQFGQDGPITVHCSAGVGRTGVFITLSIVLERMRYEGVVDMFQTVKTLRTQRPAMVQTEDQYQLCYRAALEYLGSFDHYAT
Turning to B1, the binding entry is “binds”.
